Data taken from patent US7129198B1, “Use of benzotriazole UV absorbers” (Ciba Specialty Chemicals Corporation, priority 1999, dated 2006).

Test: Demonstration of substantivity: UV absorber taken up by human hair from aqueous solution
Settings: 10 mmol/l aqueous solution, 15 minutes

CC[N+](C)(CC)CCCNC(=O)CCc1cc(-n2nc3ccccc3n2)c(O)c(C(C)(C)C)c1 [compound of formula (109)]
mg of UV absorber per g of hair (at pH 5.5, damaged (bleached) human hair): 26 (at pH 5.5; damaged hair) mg of UV absorber per g of hair
mg of UV absorber per g of hair (at pH 5.5, undamaged mid-blonde human hair): 2 (at pH 5.5; undamaged hair) mg of UV absorber per g of hair
mg of UV absorber per g of hair (at pH 9.5, damaged (bleached) human hair): 31 (at pH 9.5; damaged hair) mg of UV absorber per g of hair
mg of UV absorber per g of hair (at pH 9.5, undamaged mid-blonde human hair): 3 (at pH 9.5; undamaged hair) mg of UV absorber per g of hair
